Experimental data: patent publication US20060003988A1, “Compounds capable of inhibiting immunocyte-related allergic immune reactions” (priority 2002, published 2006)
pIC50: −log10 of the molar value. Like-named read-outs stand apart in the source and are kept apart here.

Columns and labels:
[1] = tested on: PHA-stimulated T cells; assay: Transendothelial migration of PHA-stimulated T cells through ECV304 monolayer; assay type: cell-based, human
Description: In order to determine the effect of ebastine on T cell permeation, the present inventors analyzed vascular transendothelial migration of PHA-stimulated T cells in vitro. Since fresh resting-stage T cells hardly migrate by permeating a monolayer of endothelial cells, these T cells were activated using PHA (10 μg/ml) prior to performing transendothelial migration analysis.
Specifically, the analysis of transendothelial migration was performed by slightly modifying a known method (Iwata S, Yamaguchi N, Munakata Y, Ikushima H, Lee J F, Hosono O, Schlossman S F, Morimoto C. “CD26/DPPIV differentially regulates the chemotaxis of T cells and monocytes toward RANTES. Possible mechanism for the switch from innate to acquired immune response.” Int Immunol. 11:417-426, 1999). Human endothelial cell strain ECV304 was obtained from the American Tissue Culture Collection (ATCC; Rockville, Md.) and cultured for 48 hours on Transwell cell culture inserts (Corning Costar, Cambridge, Mass.) with a pore size of 3.0 μm. The cells were loaded onto a 24-well plastic plate for cell culture (FALCON), and mixed with H1 blockers at various concentrations using Transwell assay medium (RPMI1640 medium, BSA 0.6%, Penicillin G/Streptomycin 1%, HEPES 50 mM). Two-hundred μl of PHA-stimulated T cells (1×10^7/ml) were then placed in the upper chamber and 600 μl of assay medium was placed in the lower chamber, and migration was performed for eight hours at 37° C. under 5% CO2. After recovery of the cells, the number of cells was counted for one minute by flow cytometry (FACSCalibur, Nippon Becton-Dickinson, Tokyo, Japan).

[2] = tested on: CD25
[3] = tested on: histamine-induced contraction in trachea samples; conditions: trachea samples excised from guinea pigs; read-out: IC50 of the effects on histamine-induced contraction; cited from earlier work
[4] = tested on: VCAM-1; conditions: for cell fluorescence intensity, VCAM-1: endothelial cells
[5] = tested on: CD47
[6] = tested on: CD3
[7] = tested on: IL-5 production from peripheral blood T cells; assay: IL-5 production from peripheral blood T cells (ELISA); assay type: cell-based, human; conditions: 5 μM; five independent donors
Description: The antibody-coated plates and T cells were prepared similarly as in Example 1 except that the OKT3 concentration was 0.5 μg/ml. The cytokine production by T cells was analyzed in triplicate using 96-well flat-bottomed plates by the same method employed in the T cell proliferation analysis described above. After culturing for 24 hours, the culture supernatant was tested using ELISA kit (IL-2: Biosource International, Camarillo, Calif.; IFN-γ: R&D systems, Minneapolis, Minn.) to quantify IL-2 and IFN-γ.
Th2 type CD4 T cells play an important role in allergic diseases. Therefore, the present inventors analyzed the effects of ebastine on Th2 type cytokines (IL-4, and IL-5) induced by the various costimulations described above. This analysis was performed similarly as in Example 2 except that ELISA (IL-4: Biosource International, Camarillo, Calif.; IL-5: R&D systems, Minneapolis, Minn.) was used to quantify IL-4 and IL-5.

[8] = tested on: FAK; conditions: PHA-stimulated T cells; 0.1 μM to 1.0 μM
[9] = tested on: Cas-L; conditions: PHA-stimulated T cells; 0.1 μM to 1.0 μM; dose dependent
[10] = tested on: CD44
[11] = tested on: CD29
[12] = in vivo; cited from earlier work
[13] = tested on: CD11a
[14] = tested on: ICAM-1; conditions: for cell fluorescence intensity, ICAM-1: endothelial cells
[15] = tested on: CD26
[16] = tested on: T cells; assay: T cell proliferation (3H-thymidine incorporation) via different costimulation pathways; assay type: cell-based, human
Description: The first pathway was PMA, the second pathway stimulation on CD28 that is one of the representative T cell costimulation molecules, and the third pathway stimulation on CD26 that is expressed on CD4^+ memory T cells. The simulation on CD3 was applied together with all of these stimulations. […] OKT3 was purchased from the American Tissue Culture Collection (ATCC, Rockville, Md.), while 4B10 and 1F7 were purified from mouse ascites of hybridomas established in the present inventors' laboratory ([…] et al., 1991, supra; Morimoto C et al., 1989, supra). Specifically, human peripheral blood mononuclear cells (PBMC) were isolated from the peripheral blood of normal healthy persons by specific gravity centrifugation using Ficoll/Paque (Pharmacia Biotech Inc., Piscataway, N.J.). Unfractionated mononuclear cells were separated using the E-rosette positive (E^+) method and used as unstimulated T cells. The mononuclear cells were adhered to a plastic plate for 24 hours at 37° C., and then removed by culturing for one hour in 5 mM L-leucine methyl ester HCL (Sigma Chemical Co.) solution. […] The cells were stimulated for eight hours with 1 μCi ^3H-thymidine (ICN Radiochemicals, Irvine, Calif.) per well, recovered on a glass fiber filter (Wallac, Turku, Finland) to quantify the incorporated radioactivity with a liquid scintillation counter (Wallac).

CC(C)(C)c1ccc(C(=O)CCCN2CCC(OC(c3ccccc3)c3ccccc3)CC2)cc1 [ebastine, 4-diphenylmethoxy-1[3-(4-terbutyl-benzoyl)-propyl]piperidine]
concentration at which inhibition of T cell migration reached a plateau level [1]: 5 µM | effect on T cell migration via ECV cells ([1]; ECV cells pretreated 48 hours, washed, then exposed to T cells, up to 10 μM): did not show effect | effect on T cell migration ([1]; compound present during migration, eight hours, ECV304 monolayer): markedly inhibited | cell fluorescence intensity, CD25 ([2]; Ebastine concentration 1 μM): 18.3 ± 0.35: N.S. | cell fluorescence intensity, CD25 ([2]; Ebastine concentration 5 μM): 16.5 ± 0.26: ** | expression level of CD25 ([2]; after treatment with ebastine): completely unaffected | pIC50 [3]: < 5.00 | effect on fluorescence intensity of VCAM-1 ([4]; endothelial cell membrane): no effect | cell fluorescence intensity, VCAM-1 ([4]; Ebastine concentration 1 μM): 0.3 | cell fluorescence intensity, VCAM-1 ([4]; Ebastine concentration 5 μM): 0.3 | decrease of expression level of CD47 ([5]; 5 μM): ~31% | cell fluorescence intensity, CD47 ([5]; Ebastine concentration 1 μM): 11.4 ± 0.17: ** | cell fluorescence intensity, CD47 ([5]; Ebastine concentration 5 μM): 10.0 ± 0.26: *** | cell fluorescence intensity, CD3 ([6]; Ebastine concentration 1 μM): 10.6 ± 0.2: N.S. | cell fluorescence intensity, CD3 ([6]; Ebastine concentration 5 μM): 10.9 ± 0.26: N.S. | expression level of CD3 ([6]; after treatment with ebastine): completely unaffected | inhibition of IL-5 production [7]: ≥ 50% | tyrosine phosphorylation of FAK [8]: slightly suppress | tyrosine phosphorylation of Cas-L [9]: suppress | cell fluorescence intensity, CD44 ([10]; Ebastine concentration 1 μM): 47.6 ± 0.30: N.S. | cell fluorescence intensity, CD44 ([10]; Ebastine concentration 5 μM): 47.9 ± 0.36: N.S. | expression level of CD44 ([10]; after treatment with ebastine): completely unaffected | decrease of expression level of CD29 ([11]; 5 μM): ~21% | cell fluorescence intensity, CD29 ([11]; Ebastine concentration 1 μM): 25.0 ± 0.26: * | cell fluorescence intensity, CD29 ([11]; Ebastine concentration 5 μM): 22.1 ± 0.36: *** | maximum blood concentration [12]: 0.03 µM | cell fluorescence intensity, CD11a ([13]; Ebastine concentration 1 μM): 53.8 ± 0.44: N.S. | cell fluorescence intensity, CD11a ([13]; Ebastine concentration 5 μM): 53.9 ± 0.4: N.S. | expression level of CD11a ([13]; after treatment with ebastine): completely unaffected | effect on fluorescence intensity of ICAM-1 ([14]; endothelial cell membrane): no effect | cell fluorescence intensity, ICAM-1 ([14]; Ebastine concentration 1 μM): 20.7 ± 0.52 | cell fluorescence intensity, ICAM-1 ([14]; Ebastine concentration 5 μM): 20.4 ± 0.26 | decrease of expression level of CD26 ([15]; 5 μM): approximately 14% | cell fluorescence intensity, CD26 ([15]; Ebastine concentration 1 μM): 99.1 ± 0.36: ** | cell fluorescence intensity, CD26 ([15]; Ebastine concentration 5 μM): 87.8 ± 0.36: *** | inhibition of T cell proliferation ([16]; 20 μM to 50 μM, in a certain donor): ~100% | effect on T cell proliferation ([16]; stimulation on CD3 combined with CD26, CD28 or PMA, all concentrations used): clearly inhibited
